These are yes or no findings as the source states them, for the method shown. For some assays here: Binding seen in cells or lysates may run through a third protein. Some entries that bind do so weakly or less than the wild type. For some assays here: Where a sequence is shown, tags or fusion partners need not be part of it.
T1: human 6His2Flag-Cdc45 (human) (UniProt O75419)
T1 sequence: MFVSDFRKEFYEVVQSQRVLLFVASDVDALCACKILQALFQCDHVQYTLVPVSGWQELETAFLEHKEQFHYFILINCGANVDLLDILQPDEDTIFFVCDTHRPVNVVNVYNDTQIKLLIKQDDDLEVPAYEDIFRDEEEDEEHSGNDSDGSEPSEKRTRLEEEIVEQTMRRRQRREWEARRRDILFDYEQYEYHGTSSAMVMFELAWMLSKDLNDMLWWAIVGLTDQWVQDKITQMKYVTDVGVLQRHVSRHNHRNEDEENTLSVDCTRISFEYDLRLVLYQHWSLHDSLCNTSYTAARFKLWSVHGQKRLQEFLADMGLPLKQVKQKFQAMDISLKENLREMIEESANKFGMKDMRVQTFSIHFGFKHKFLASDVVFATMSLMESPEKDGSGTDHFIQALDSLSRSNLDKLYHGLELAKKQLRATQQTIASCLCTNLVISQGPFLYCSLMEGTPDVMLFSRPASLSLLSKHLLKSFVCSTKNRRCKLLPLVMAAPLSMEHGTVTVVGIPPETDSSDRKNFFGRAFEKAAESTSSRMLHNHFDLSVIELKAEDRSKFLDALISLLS

Protein sequences, listed by entry. Tags and fused reporters are not part of them.
UniProt Q9BRT9: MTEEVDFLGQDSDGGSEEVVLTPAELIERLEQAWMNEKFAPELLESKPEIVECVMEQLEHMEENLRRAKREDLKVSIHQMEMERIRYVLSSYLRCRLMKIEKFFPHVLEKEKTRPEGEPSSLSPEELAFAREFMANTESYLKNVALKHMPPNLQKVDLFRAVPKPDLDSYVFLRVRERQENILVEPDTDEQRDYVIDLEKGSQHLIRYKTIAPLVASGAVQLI
UniProt P49736: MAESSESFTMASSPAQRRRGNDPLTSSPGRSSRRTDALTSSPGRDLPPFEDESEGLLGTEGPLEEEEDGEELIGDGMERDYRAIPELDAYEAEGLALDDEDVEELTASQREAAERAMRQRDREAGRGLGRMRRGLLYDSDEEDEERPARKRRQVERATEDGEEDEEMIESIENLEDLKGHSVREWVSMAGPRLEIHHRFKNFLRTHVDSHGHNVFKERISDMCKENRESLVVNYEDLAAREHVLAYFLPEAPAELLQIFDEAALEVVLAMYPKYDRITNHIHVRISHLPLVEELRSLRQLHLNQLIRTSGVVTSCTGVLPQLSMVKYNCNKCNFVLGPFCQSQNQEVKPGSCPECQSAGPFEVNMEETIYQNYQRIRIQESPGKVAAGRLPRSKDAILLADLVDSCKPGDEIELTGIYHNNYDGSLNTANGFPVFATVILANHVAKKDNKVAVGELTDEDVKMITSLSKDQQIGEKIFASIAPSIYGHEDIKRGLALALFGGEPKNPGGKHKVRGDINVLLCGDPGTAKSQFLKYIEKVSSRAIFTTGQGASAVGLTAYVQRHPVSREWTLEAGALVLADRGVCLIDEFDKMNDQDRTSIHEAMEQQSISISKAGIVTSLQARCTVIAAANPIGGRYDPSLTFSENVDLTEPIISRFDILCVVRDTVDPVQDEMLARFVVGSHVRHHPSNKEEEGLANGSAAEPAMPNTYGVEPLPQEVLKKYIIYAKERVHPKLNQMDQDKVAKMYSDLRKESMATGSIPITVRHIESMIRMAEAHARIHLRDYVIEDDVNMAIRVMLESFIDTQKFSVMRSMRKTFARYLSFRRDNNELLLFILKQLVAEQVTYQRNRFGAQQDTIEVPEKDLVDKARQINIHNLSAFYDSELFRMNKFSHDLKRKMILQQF


Columns and labels:
[1] = biological target: T1, human 6His2Flag-Cdc45 (human); assay: co-purification of co-expressed subunits (glutathione beads, Q-Sepharose, anti-Flag beads, glycerol gradient); 11 human CMG subunits co-expressed in High Five cells; captured by GST-Sld5 on glutathione beads (0.42 M potassium acetate), Q-Sepharose, then by 6His2Flag-Cdc45 on anti-Flag M2 beads, PreScission cleavage, 15-40% glycerol gradient; subunits checked by silver staining and immunoblotting
[2] = biological target: human GST-Sld5 (human) (UniProt Q9BRT9); assay: as above
[3] = biological target: Flag-Mcm2 (human, ectopic) (human) (UniProt P49736); assay: condition: only with 15 µM CA1 on the immunoprecipitated complexes for 30 min; co-IP; as a4, but the beads with the immunoprecipitated complexes were incubated with 15 µM coumermycin-A1 (CA1) for 30 min, washed, immunoblotted

Row | binding [1] | binding [2] | binding [3] | Binder
1 | binds | binds |  | human Mcm5 (recombinant hCMG subunit) (protein, UniProt P33992 1-734) MSGFDDPGIFYSDSFGGDAQADEGQARKSQLQRRFKEFLRQYRVGTDRTGFTFKYRDELKRHYNLGEYWIEVEMEDLASFDEDLADYLYKQPAEHLQLLEEAAKEVADEVTRPRPSGEEVLQDIQVMLKSDASPSSIRSLKSDMMSHLVKIPGIIIAASAVRAKATRISIQCRSCRNTLTNIAMRPGLEGYALPRKCNTDQAGRPKCPLDPYFIMPDKCKCVDFQTLKLQELPDAVPHGEMPRHMQLYCDRYLCDKVVPGNRVTIMGIYSIKKFGLTTSRGRDRVGVGIRSSYIRVLGIQVDTDGSGRSFAGAVSPQEEEEFRRLAALPNVYEVISKSIAPSIFGGTDMKKAIACLLFGGSRKRLPDGLTRRGDINLLMLGDPGTAKSQLLKFVEKCSPIGVYTSGKGSSAAGLTASVMRDPSSRNFIMEGGAMVLADGGVVCIDEFDKMREDDRVAIHEAMEQQTISIAKAGITTTLNSRCSVLAAANSVFGRWDETKGEDNIDFMPTILSRFDMIFIVKDEHNEERDVMLAKHVITLHVSALTQTQAVEGEIDLAKLKKFIAYCRVKCGPRLSAEAAEKLKNRYIIMRSGARQHERDSDRRSSIPITVRQLEAIVRIAEALSKMKLQPFATEADVEEALRLFQVSTLDAALSGTLSGVEGFTSQEDQEMLSRIEKQLKRRFAIGSQVSEHSIIKDFTKQKYPEHAIHKVLQLMLRRGEIQHRMQRKVLYRLK
2 | binds | binds |  | human Mcm3 (recombinant hCMG subunit) (protein, UniProt P25205 1-808) MAGTVVLDDVELREAQRDYLDFLDDEEDQGIYQSKVRELISDNQYRLIVNVNDLRRKNEKRANRLLNNAFEELVAFQRALKDFVASIDATYAKQYEEFYVGLEGSFGSKHVSPRTLTSCFLSCVVCVEGIVTKCSLVRPKVVRSVHYCPATKKTIERRYSDLTTLVAFPSSSVYPTKDEENNPLETEYGLSVYKDHQTITIQEMPEKAPAGQLPRSVDVILDDDLVDKAKPGDRVQVVGTYRCLPGKKGGYTSGTFRTVLIACNVKQMSKDAQPSFSAEDIAKIKKFSKTRSKDIFDQLAKSLAPSIHGHDYVKKAILCLLLGGVERDLENGSHIRGDINILLIGDPSVAKSQLLRYVLCTAPRAIPTTGRGSSGVGLTAAVTTDQETGERRLEAGAMVLADRGVVCIDEFDKMSDMDRTAIHEVMEQGRVTIAKAGIHARLNARCSVLAAANPVYGRYDQYKTPMENIGLQDSLLSRFDLLFIMLDQMDPEQDREISDHVLRMHRYRAPGEQDGDAMPLGSAVDILATDDPNFSQEDQQDTQIYEKHDNLLHGTKKKKEKMVSAAFMKKYIHVAKIIKPVLTQESATYIAEEYSRLRSQDSMSSDTARTSPVTARTLETLIRLATAHAKARMSKTVDLQDAEEAVELVQYAYFKKVLEKEKKRKKRSEDESETEDEEEKSQEDQEQKRKRRKTRQPDAKDGDSYDPYDFSDTEEEMPQVHTPKTADSQETKESQKVELSESRLKAFKVALLDVFREAHAQSIGMNRLTESINRDSEEPFSSVEIQAALSKMQDDNQVMVSEGIIFLI
3 | binds | binds |  | human Psf3 (recombinant hCMG subunit) (protein, UniProt Q9BRX5 1-216) MSEAYFRVESGALGPEENFLSLDDILMSHEKLPVRTETAMPRLGAFFLERSAGAETDNAVPQGSKLELPLWLAKGLFDNKRRILSVELPKIYQEGWRTVFSADPNVVDLHKMGPHFYGFGSQLLHFDSPENADISQSLLQTFIGRFRRIMDSSQNAYNEDTSALVARLDEMERGLFQTGQKGLNDFQCWEKGQASQITASNLVQNYKKRKFTDMED
4 |  | binds |  | human 6His2Flag-Cdc45 (protein, UniProt O75419 1-566) MFVSDFRKEFYEVVQSQRVLLFVASDVDALCACKILQALFQCDHVQYTLVPVSGWQELETAFLEHKEQFHYFILINCGANVDLLDILQPDEDTIFFVCDTHRPVNVVNVYNDTQIKLLIKQDDDLEVPAYEDIFRDEEEDEEHSGNDSDGSEPSEKRTRLEEEIVEQTMRRRQRREWEARRRDILFDYEQYEYHGTSSAMVMFELAWMLSKDLNDMLWWAIVGLTDQWVQDKITQMKYVTDVGVLQRHVSRHNHRNEDEENTLSVDCTRISFEYDLRLVLYQHWSLHDSLCNTSYTAARFKLWSVHGQKRLQEFLADMGLPLKQVKQKFQAMDISLKENLREMIEESANKFGMKDMRVQTFSIHFGFKHKFLASDVVFATMSLMESPEKDGSGTDHFIQALDSLSRSNLDKLYHGLELAKKQLRATQQTIASCLCTNLVISQGPFLYCSLMEGTPDVMLFSRPASLSLLSKHLLKSFVCSTKNRRCKLLPLVMAAPLSMEHGTVTVVGIPPETDSSDRKNFFGRAFEKAAESTSSRMLHNHFDLSVIELKAEDRSKFLDALISLLS
5 | binds | binds |  | human Psf2 (recombinant hCMG subunit) (protein, UniProt Q9Y248 1-185) MDAAEVEFLAEKELVTIIPNFSLDKIYLIGGDLGPFNPGLPVEVPLWLAINLKQRQKCRLLPPEWMDVEKLEKMRDHERKEETFTPMPSPYYMELTKLLLNHASDNIPKADEIRTLVKDMWDTRIAKLRVSADSFVRQQEAHAKLDNLTLMEINTSGTFLTQALNHMYKLRTNLQPLESTQSQDF
6 | binds | binds |  | human Psf1 (recombinant hCMG subunit) (protein, UniProt Q14691 1-196) MFCEKAMELIRELHRAPEGQLPAFNEDGLRQVLEEMKALYEQNQSDVNEAKSGGRSDLIPTIKFRHCSLLRNRRCTVAYLYDRLLRIRALRWEYGSVLPNALRFHMAAEEMEWFNNYKRSLATYMRSLGGDEGLDITQDMKPPKSLYIEVRCLKDYGEFEVDDGTSVLLKKNSQHFLPRWKCEQLIRQGVLEHILS
7 | binds | binds |  | human Mcm6 (recombinant hCMG subunit) (protein, UniProt Q14566 1-821) MDLAAAAEPGAGSQHLEVRDEVAEKCQKLFLDFLEEFQSSDGEIKYLQLAEELIRPERNTLVVSFVDLEQFNQQLSTTIQEEFYRVYPYLCRALKTFVKDRKEIPLAKDFYVAFQDLPTRHKIRELTSSRIGLLTRISGQVVRTHPVHPELVSGTFLCLDCQTVIRDVEQQFKYTQPNICRNPVCANRRRFLLDTNKSRFVDFQKVRIQETQAELPRGSIPRSLEVILRAEAVESAQAGDKCDFTGTLIVVPDVSKLSTPGARAETNSRVSGVDGYETEGIRGLRALGVRDLSYRLVFLACCVAPTNPRFGGKELRDEEQTAESIKNQMTVKEWEKVFEMSQDKNLYHNLCTSLFPTIHGNDEVKRGVLLMLFGGVPKTTGEGTSLRGDINVCIVGDPSTAKSQFLKHVEEFSPRAVYTSGKASSAAGLTAAVVRDEESHEFVIEAGALMLADNGVCCIDEFDKMDVRDQVAIHEAMEQQTISITKAGVKATLNARTSILAAANPISGHYDRSKSLKQNINLSAPIMSRFDLFFILVDECNEVTDYAIARRIVDLHSRIEESIDRVYSLDDIRRYLLFARQFKPKISKESEDFIVEQYKHLRQRDGSGVTKSSWRITVRQLESMIRLSEAMARMHCCDEVQPKHVKEAFRLLNKSIIRVETPDVNLDQEEEIQMEVDEGAGGINGHADSPAPVNGINGYNEDINQESAPKASLRLGFSEYCRISNLIVLHLRKVEEEEDESALKRSELVNWYLKEIESEIDSEEELINKKRIIEKVIHRLTHYDHVLIELTQAGLKGSTEGSESYEEDPYLVVNPNYLLED
8 |  |  | no binding | Ctf4 (endogenous) (protein, UniProt O75717 1-1129) MPATRKPMRYGHTEGHTEVCFDDSGSFIVTCGSDGDVRIWEDLDDDDPKFINVGEKAYSCALKSGKLVTAVSNNTIQVHTFPEGVPDGILTRFTTNANHVVFNGDGTKIAAGSSDFLVKIVDVMDSSQQKTFRGHDAPVLSLSFDPKDIFLASASCDGSVRVWQISDQTCAISWPLLQKCNDVINAKSICRLAWQPKSGKLLAIPVEKSVKLYRRESWSHQFDLSDNFISQTLNIVTWSPCGQYLAAGSINGLIIVWNVETKDCMERVKHEKGYAICGLAWHPTCGRISYTDAEGNLGLLENVCDPSGKTSSSKVSSRVEKDYNDLFDGDDMSNAGDFLNDNAVEIPSFSKGIINDDEDDEDLMMASGRPRQRSHILEDDENSVDISMLKTGSSLLKEEEEDGQEGSIHNLPLVTSQRPFYDGPMPTPRQKPFQSGSTPLHLTHRFMVWNSIGIIRCYNDEQDNAIDVEFHDTSIHHATHLSNTLNYTIADLSHEAILLACESTDELASKLHCLHFSSWDSSKEWIIDLPQNEDIEAICLGQGWAAAATSALLLRLFTIGGVQKEVFSLAGPVVSMAGHGEQLFIVYHRGTGFDGDQCLGVQLLELGKKKKQILHGDPLPLTRKSYLAWIGFSAEGTPCYVDSEGIVRMLNRGLGNTWTPICNTREHCKGKSDHYWVVGIHENPQQLRCIPCKGSRFPPTLPRPAVAILSFKLPYCQIATEKGQMEEQFWRSVIFHNHLDYLAKNGYEYEESTKNQATKEQQELLMKMLALSCKLEREFRCVELADLMTQNAVNLAIKYASRSRKLILAQKLSELAVEKAAELTATQVEEEEEEEDFRKKLNAGYSNTATEWSQPRFRNQVEEDAEDSGEADDEEKPEIHKPGQNSFSKSTNSSDVSAKSGAVTFSSQGRVNPFKVSASSKEPAMSMNSARSTNILDNMGKSSKKSTALSRTTNNEKSPIIKPLIPKPKPKQASAASYFQKRNSQTNKTEEVKEENLKNVLSETPAICPPQNTENQRPKTGFQMWLEENRSNILSDNPDFSDEADIIKEGMIRFRVLSTEERKVWANKAKGETASEGTEAKKRKRVVDESDETENQEEKAKENLNLSKKQKPLDFSTNQKLSAFAFKQE
